Results taken from patent US9670261B2 (Sanofi, priority 2012, dated 2017).
At least one compound was matched to its structure with a doubt left.

Columns and labels:
[1] = system: female diet-induced obese (DIO) C57BL/6NCrl mice; test: Blood glucose and body weight in DIO mice, 18 weeks on high-fat diet (method 1); assay type: in vivo; conditions: 100 μg/kg, 4-week treatment, mean ± SEM
Experimental: Female C57BL/6NCrl mice were housed in groups in a specific pathogen-free barrier facility on a 12 h light/dark cycle with free access to water and high-fat diet. After 18 weeks on high-fat diet, mice were stratified to treatment groups (n=8), so that each group had similar mean body weight. An aged-matched group with ad libitum access to standard chow was included as standard control group.
Before the experiment, mice were subcutaneously (s.c.) injected with vehicle solution and weighed for 3 days to acclimate them to the procedures.
The volume of administration was 5 mL/kg. The animals had access to water and their corresponding diet during the experiment, food consumption was determined at all time points of blood sampling. Blood glucose levels were measured at t=0.5 h, t=1 h, t=2 h, t=4 h, t=6 h, t=8 h, and t=24 h (method: d-glucose hexokinase, hemolysate, AU640 Beckman Coulter). […]
Body weight was recorded daily. On days 6 and 28, total fat mass was measured by nuclear magnetic resonance (NMR) using a Bruker minispec (Ettlingen, Germany). […]
Female obese C57BL/6NCrl mice were treated for 4 weeks once daily subcutaneously in the afternoon, at the end of the light phase (12 h lights on) with 10, 30 or 100 μg/kg SEQ ID NO: 9 or vehicle. Body weight was recorded daily, and body fat content was determined before the start of treatment and after 4 weeks of treatment.

female NMRI-mice = test: Automated assessment of 22-hours feed intake in mice; assay type: in vivo; conditions: 0.1 mg/kg s.c.
Experimental: Female NMRI-mice of a body weight between 20 and 30 g were used. Mice were adapted to housing conditions for at least one week and for at least one day single-caged in the assessment equipment, when basal data were recorded simultaneously. On the study day, test product was administered subcutaneously close to the lights-off phase (12 h lights off) and assessment of feed consumption was directly started afterwards. Assessment included continued monitoring over 22 hours, while data are processed as mean over every 30 min. Repetition of this procedure over several days was possible. Restriction of assessment to 22 hours was for practical reasons to allow for reweighing of animals, refilling of feed and water and drug administration between procedures. Results could be assessed as cumulated data over 22 hours or differentiated to 30 min intervals. […] Statistical analyses were performed with Everstat 6.0 by two-way ANOVA on repeated measures and Dunnett's post-hoc analyses. Differences were considered statistically significant at the p<0.05 level. […] Lights-off phase (dark phase) started 4 hours later. […].

CCCCCCCCCCCCCCCC(=O)N[C@@H](CCC(=O)NCCCC[C@H](NC(=O)[C@H](C)NC(=O)[C@H](C)NC(=O)[C@H](CCC(N)=O)NC(=O)CNC(=O)[C@H](CCC(=O)O)NC(=O)[C@H](CC(C)C)NC(=O)[C@H](Cc1ccc(O)cc1)NC(=O)[C@H](CO)NC(=O)[C@H](CO)NC(=O)[C@@H](NC(=O)[C@H](CC(=O)O)NC(=O)[C@H](CO)NC(=O)[C@@H](NC(=O)[C@H](Cc1ccccc1)NC(=O)[C@@H](NC(=O)CNC(=O)[C@H](CCC(=O)O)NC(=O)[C@H](C)NC(=O)[C@@H](N)Cc1cnc[nH]1)[C@@H](C)O)[C@@H](C)O)C(C)C)C(=O)N[C@@H](CCC(=O)O)C(=O)N[C@@H](Cc1ccccc1)C(=O)N[C@H](C(=O)N[C@@H](C)C(=O)N[C@@H](Cc1c[nH]c2ccccc12)C(=O)N[C@@H](CC(C)C)C(=O)N[C@H](C(=O)N[C@@H](CCCNC(=N)N)C(=O)NCC(=O)N[C@@H](CCCNC(=N)N)C(=O)NCC(=O)O)C(C)C)[C@@H](C)CC)C(=O)O [Liraglutide, HAEGTFTSDVSSYLEGQAAK(γE-x53)-E-F-I-A-W-L-V-R-G-R-G, reference compound]
Bodyfat change [1]: -3.3 ± 0.4 g
Overall weight change [1]: -3.9 ± -0.4 g
reduction of feed intake after 22 hours (female NMRI-mice): 47%
